Paper PMC11358521
No constants are given. Whether binding was seen depends on the method and setting. In cells and extracts the contact can be indirect. Here binding means that the protein was enriched with, or labelled near, the bait; the list need not be complete. For some of these results: No binding means not detected with the bait. Sequences can lack the tags named with a protein.

T1: heterogeneous nuclear ribonucleoprotein R (hnRNP R) (mouse (endogenous in primary motoneurons)) (UniProt Q8VHM5)
T1 sequence: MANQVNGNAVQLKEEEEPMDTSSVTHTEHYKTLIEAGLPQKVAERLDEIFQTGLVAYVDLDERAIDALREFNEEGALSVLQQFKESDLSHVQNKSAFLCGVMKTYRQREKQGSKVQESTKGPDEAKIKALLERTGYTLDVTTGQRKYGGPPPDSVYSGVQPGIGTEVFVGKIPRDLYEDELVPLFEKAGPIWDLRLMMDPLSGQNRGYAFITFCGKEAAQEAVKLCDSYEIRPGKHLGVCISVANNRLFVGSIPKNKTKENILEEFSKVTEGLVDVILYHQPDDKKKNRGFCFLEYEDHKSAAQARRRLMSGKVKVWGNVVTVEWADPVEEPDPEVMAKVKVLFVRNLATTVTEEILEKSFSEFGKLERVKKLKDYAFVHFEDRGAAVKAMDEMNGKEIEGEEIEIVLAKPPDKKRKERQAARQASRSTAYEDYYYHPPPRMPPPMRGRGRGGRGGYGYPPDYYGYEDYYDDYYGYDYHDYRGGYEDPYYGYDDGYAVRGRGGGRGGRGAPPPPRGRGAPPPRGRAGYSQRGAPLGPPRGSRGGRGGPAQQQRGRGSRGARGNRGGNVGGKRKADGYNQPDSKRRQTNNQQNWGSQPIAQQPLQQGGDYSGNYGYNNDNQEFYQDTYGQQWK

T2: O-linked β-N-acetylglucosamine (O-GlcNAc) transferase (Ogt) (mouse (endogenous in primary motoneurons)) (UniProt Q8CGY8)
T2 sequence: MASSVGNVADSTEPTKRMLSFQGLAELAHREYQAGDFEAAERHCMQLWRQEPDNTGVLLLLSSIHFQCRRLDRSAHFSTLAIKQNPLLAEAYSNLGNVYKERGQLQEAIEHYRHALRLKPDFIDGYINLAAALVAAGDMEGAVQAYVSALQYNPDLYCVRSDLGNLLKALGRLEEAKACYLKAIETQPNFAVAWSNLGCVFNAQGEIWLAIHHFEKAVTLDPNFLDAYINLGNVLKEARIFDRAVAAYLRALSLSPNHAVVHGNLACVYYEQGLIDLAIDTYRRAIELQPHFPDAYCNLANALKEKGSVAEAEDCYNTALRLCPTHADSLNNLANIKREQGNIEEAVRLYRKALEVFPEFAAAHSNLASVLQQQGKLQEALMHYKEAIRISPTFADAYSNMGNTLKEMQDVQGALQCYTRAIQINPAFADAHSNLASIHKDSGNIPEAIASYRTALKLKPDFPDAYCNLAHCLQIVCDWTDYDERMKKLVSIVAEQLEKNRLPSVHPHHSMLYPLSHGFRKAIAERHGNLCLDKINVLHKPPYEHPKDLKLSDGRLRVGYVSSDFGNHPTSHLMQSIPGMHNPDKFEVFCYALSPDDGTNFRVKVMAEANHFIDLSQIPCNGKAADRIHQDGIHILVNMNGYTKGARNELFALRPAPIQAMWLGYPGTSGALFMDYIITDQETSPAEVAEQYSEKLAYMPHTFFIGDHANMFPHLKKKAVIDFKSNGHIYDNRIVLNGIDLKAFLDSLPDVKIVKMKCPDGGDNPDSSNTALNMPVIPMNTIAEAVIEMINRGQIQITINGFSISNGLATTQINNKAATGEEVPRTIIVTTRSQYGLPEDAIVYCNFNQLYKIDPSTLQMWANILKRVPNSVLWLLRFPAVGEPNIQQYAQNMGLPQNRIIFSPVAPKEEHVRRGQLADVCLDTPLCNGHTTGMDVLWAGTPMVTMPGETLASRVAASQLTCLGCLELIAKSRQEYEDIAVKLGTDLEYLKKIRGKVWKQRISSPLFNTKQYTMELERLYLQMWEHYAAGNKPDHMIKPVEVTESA

B1: O-linked β-N-acetylglucosamine (O-GlcNAc) transferase (Ogt) (enzyme, UniProt Q8CGY8 1-1046)
chain: T2 sequence
B2: heterogeneous nuclear ribonucleoprotein R (hnRNP R) (protein, UniProt Q8VHM5 1-632)
chain: T1 sequence

Key:
[1] = target: T1, heterogeneous nuclear ribonucleoprotein R (hnRNP R) (mouse (endogenous in primary motoneurons)); test: affinity purification with mass spectrometry; axonal compartment lysate of motoneurons in microfluidic chambers; anti-hnRNP R (Abcam ab30930) or anti-Ogt (Proteintech 11576-2-AP) on Dynabeads Protein A, against no-antibody control; overnight at 4 °C
[2] = target: T1, heterogeneous nuclear ribonucleoprotein R (hnRNP R) (mouse (endogenous in primary motoneurons)); test: affinity purification with mass spectrometry; somatodendritic compartment lysate of motoneurons in microfluidic chambers; anti-hnRNP R (Abcam ab30930) or anti-Ogt (Proteintech 11576-2-AP) on Dynabeads Protein A, against no-antibody control; overnight at 4 °C
[3] = target: T2, O-linked β-N-acetylglucosamine (O-GlcNAc) transferase (Ogt) (mouse (endogenous in primary motoneurons)); test: affinity purification with mass spectrometry; axonal compartment lysate of motoneurons in microfluidic chambers; anti-hnRNP R (Abcam ab30930) or anti-Ogt (Proteintech 11576-2-AP) on Dynabeads Protein A, against no-antibody control; overnight at 4 °C
[4] = target: T2, O-linked β-N-acetylglucosamine (O-GlcNAc) transferase (Ogt) (mouse (endogenous in primary motoneurons)); test: affinity purification with mass spectrometry; somatodendritic compartment lysate of motoneurons in microfluidic chambers; anti-hnRNP R (Abcam ab30930) or anti-Ogt (Proteintech 11576-2-AP) on Dynabeads Protein A, against no-antibody control; overnight at 4 °C

| Binder | binding [1] | binding [2] | binding [3] | binding [4] |
| --- | --- | --- | --- | --- |
| B1 | binds | no binding (only somatodendritic compartment lysate) |  |  |
| B2 |  |  | binds | no binding (only somatodendritic compartment lysate) |
